# Where cells or extracts were used, other partners may take part. A negative result means that nothing was seen under these conditions. For some assays here: Where a protein sequence is shown, tags need not be part of it.
# The chains behind the UniProt entries cited, without tags or fusion partners. A line that says so, or that is headed by a name, gives the form on record, which may keep a tag or linker.
# UniProt P23804, other isoform, or with tags, fused parts or gaps: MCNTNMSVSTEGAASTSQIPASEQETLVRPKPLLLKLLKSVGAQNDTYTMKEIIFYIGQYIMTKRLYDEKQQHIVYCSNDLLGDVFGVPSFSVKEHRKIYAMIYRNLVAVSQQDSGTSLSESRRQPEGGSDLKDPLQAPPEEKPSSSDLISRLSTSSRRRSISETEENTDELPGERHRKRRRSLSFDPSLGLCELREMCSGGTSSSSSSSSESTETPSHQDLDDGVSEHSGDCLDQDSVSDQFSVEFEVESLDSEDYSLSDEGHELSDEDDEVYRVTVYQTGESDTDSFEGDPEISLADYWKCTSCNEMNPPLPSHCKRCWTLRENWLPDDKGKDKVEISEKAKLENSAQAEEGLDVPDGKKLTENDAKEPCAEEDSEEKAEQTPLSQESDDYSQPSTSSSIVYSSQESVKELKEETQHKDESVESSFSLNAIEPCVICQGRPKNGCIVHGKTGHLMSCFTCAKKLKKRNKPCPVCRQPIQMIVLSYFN
# Legend:
# mdm2 = mdm2 (UniProt P23804); test: EMSA; conditions: mdm2 did not bind probe nor affect mobility of p53 complexes; protein in a lysate after overexpression; label: 32P 5'-end
# p19ARF (Mus musculus) = biological target: T1, p19ARF (Mus musculus) (UniProt Q64364); test: EMSA; conditions: ARF alone does not bind probe; binds p53-DNA complex; protein in a lysate after overexpression; protein details: baculovirus Sf9 extract; label: 32P 5'-end
# T1 sequence (limits assumed): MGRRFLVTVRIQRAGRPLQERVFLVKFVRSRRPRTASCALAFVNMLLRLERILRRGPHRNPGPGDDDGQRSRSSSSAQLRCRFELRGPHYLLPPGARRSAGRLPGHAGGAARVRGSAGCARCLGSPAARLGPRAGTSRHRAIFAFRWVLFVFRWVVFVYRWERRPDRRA
sequence,measurement,setting,value
AGGCATGCCTAGGCATGCCT (double strand) [double p53 consensus oligonucleotide],binding result,mdm2,no binding
same,binding result,p19ARF (Mus musculus),no binding

# Reference: US6407062
